No constants are given. Whether binding was seen depends on the method and setting. Binding seen in cells or lysates may run through a third protein. A yes stands for co-enrichment or nearness to the bait. Other partners may have been found.
Target: EVI1 (human (endogenous in MUTZ3))
Assay: affinity purification with mass spectrometry; IP for EVI1 and MS (DIA) in MUTZ3 cells with 4× PLDLS or 4× PLASS induced with doxycycline (1 μg/ml) for 72 hours; abundances within the EVI1 IP compared

B1: ZEB2 (protein, UniProt O60315 1-1214)
chain: MKQPIMADGPRCKRRKQANPRRKNVVNYDNVVDTGSETDEEDKLHIAEDDGIANPLDQETSPASVPNHESSPHVSQALLPREEEEDEIREGGVEHPWHNNEILQASVDGPEEMKEDYDTMGPEATIQTAINNGTVKNANCTSDFEEYFAKRKLEERDGHAVSIEEYLQRSDTAIIYPEAPEELSRLGTPEANGQEENDLPPGTPDAFAQLLTCPYCDRGYKRLTSLKEHIKYRHEKNEENFSCPLCSYTFAYRTQLERHMVTHKPGTDQHQMLTQGAGNRKFKCTECGKAFKYKHHLKEHLRIHSGEKPYECPNCKKRFSHSGSYSSHISSKKCIGLISVNGRMRNNIKTGSSPNSVSSSPTNSAITQLRNKLENGKPLSMSEQTGLLKIKTEPLDFNDYKVLMATHGFSGTSPFMNGGLGATSPLGVHPSAQSPMQHLGVGMEAPLLGFPTMNSNLSEVQKVLQIVDNTVSRQKMDCKAEEISKLKGYHMKDPCSQPEEQGVTSPNIPPVGLPVVSHNGATKSIIDYTLEKVNEAKACLQSLTTDSRRQISNIKKEKLRTLIDLVTDDKMIENHNISTPFSCQFCKESFPGPIPLHQHERYLCKMNEEIKAVLQPHENIVPNKAGVFVDNKALLLSSVLSEKGMTSPINPYKDHMSVLKAYYAMNMEPNSDELLKISIAVGLPQEFVKEWFEQRKVYQYSNSRSPSLERSSKPLAPNSNPPTKDSLLPRSPVKPMDSITSPSIAELHNSVTNCDPPLRLTKPSHFTNIKPVEKLDHSRSNTPSPLNLSSTSSKNSHSSSYTPNSFSSEELQAEPLDLSLPKQMKEPKSIIATKNKTKASSISLDHNSVSSSSENSDEPLNLTFIKKEFSNSNNLDNKSTNPVFSMNPFSAKPLYTALPPQSAFPPATFMPPVQTSIPGLRPYPGLDQMSFLPHMAYTYPTGAATFADMQQRRKYQRKQGFQGELLDGAQDYMSGLDDMTDSDSCLSRKKIKKTESGMYACDLCDKTFQKSSSLLRHKYEHTGKRPHQCQICKKAFKHKHHLIEHSRLHSGEKPYQCDKCGKRFSHSGSYSQHMNHRYSYCKREAEEREAAEREAREKGHLEPTELLMNRAYLQSITPQGYSDSEERESMPRDGESEKEHEKEGEDGYGKLGRQDGDEEFEEEEEESENKSMDTDPETIRDEEETGDHSMDDSSEDGKMETKSDHEEDNMEDGM
binding: binds

— paper PMC11095456
